Results are given in words; binding and its absence hold for the method and conditions named. Binding seen in cells or lysates may run through a third protein. A yes stands for co-enrichment or nearness to the bait. Other partners may have been found. Where a sequence is shown, tags or fusion partners need not be part of it.
T1: FLAG-HA-tagged RBM33 (UniProt Q96EV2)
T1 sequence: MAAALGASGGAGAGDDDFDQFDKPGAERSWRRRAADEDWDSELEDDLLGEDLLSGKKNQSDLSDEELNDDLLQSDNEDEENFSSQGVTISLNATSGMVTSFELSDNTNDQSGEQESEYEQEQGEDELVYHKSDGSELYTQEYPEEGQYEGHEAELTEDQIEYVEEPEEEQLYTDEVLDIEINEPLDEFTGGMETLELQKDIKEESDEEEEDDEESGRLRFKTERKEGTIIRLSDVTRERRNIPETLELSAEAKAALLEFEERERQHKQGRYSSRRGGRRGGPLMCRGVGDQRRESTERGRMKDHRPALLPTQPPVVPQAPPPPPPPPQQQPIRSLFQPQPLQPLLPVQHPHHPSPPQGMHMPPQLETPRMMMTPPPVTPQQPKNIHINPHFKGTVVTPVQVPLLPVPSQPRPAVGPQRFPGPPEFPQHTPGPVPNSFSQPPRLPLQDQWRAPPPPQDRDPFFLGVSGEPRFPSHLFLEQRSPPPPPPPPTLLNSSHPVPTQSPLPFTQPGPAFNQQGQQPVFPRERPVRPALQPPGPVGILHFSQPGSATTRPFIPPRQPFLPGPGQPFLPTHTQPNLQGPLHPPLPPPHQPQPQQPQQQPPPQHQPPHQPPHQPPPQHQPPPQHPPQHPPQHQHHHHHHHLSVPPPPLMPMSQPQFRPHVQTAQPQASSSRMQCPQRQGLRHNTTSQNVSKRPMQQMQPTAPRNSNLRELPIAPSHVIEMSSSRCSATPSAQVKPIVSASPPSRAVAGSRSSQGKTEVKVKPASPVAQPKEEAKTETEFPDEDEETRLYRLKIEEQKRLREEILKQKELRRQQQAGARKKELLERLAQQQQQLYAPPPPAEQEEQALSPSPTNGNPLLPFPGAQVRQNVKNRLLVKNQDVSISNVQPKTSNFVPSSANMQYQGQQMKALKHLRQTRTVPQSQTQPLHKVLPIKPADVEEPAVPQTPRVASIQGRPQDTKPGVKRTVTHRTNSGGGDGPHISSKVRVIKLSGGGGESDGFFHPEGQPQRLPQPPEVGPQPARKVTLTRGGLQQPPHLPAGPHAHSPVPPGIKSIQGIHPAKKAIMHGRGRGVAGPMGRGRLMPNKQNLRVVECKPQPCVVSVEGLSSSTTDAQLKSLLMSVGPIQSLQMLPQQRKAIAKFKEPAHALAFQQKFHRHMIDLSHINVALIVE

By UniProt entry, the sequences of proteins in these tests, tags left out.
UniProt Q13838: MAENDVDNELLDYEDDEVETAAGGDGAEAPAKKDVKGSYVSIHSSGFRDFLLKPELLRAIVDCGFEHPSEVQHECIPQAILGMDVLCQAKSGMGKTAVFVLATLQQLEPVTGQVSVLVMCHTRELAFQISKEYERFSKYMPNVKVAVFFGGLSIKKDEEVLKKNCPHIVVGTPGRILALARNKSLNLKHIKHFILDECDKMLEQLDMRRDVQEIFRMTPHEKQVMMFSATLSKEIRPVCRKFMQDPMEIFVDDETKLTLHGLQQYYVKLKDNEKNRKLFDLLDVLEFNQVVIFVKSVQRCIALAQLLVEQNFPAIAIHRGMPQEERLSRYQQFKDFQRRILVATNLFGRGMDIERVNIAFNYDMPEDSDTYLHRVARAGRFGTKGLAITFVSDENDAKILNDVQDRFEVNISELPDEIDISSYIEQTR


Molecular target: T1, FLAG-HA-tagged RBM33
Test: affinity purification with mass spectrometry; FLAG M2 antibody on Dynabeads Protein G; lysates of HCT116 cells stably expressing FH-RBM33 or empty vector, with 20 µg/mL RNase A, 2 h at 4°C; 50 mM Tris-HCl pH 7.5, 150 mM NaCl, 1% NP-40, 0.1% sodium deoxycholate; eluted with 3× FLAG peptide; LC-MS/MS, triplicate

binding | Molecule
binds | UAP56 (from UniProt Q13838 1-428)
binds | THOC6 (protein, UniProt Q86W42 1-341) MERAVPLAVPLGQTEVFQALQRLHMTIFSQSVSPCGKFLAAGNNYGQIAIFSLSSALSSEAKEESKKPVVTFQAHDGPVYSMVSTDRHLLSAGDGEVKAWLWAEMLKKGCKELWRRQPPYRTSLEVPEINALLLVPKENSLILAGGDCQLHTMDLETGTFTRVLRGHTDYIHCLALRERSPEVLSGGEDGAVRLWDLRTAKEVQTIEVYKHEECSRPHNGRWIGCLATDSDWMVCGGGPALTLWHLRSSTPTTIFPIRAPQKHVTFYQDLILSAGQGRCVNQWQLSGELKAQVPGSSPGLLSLSLNQQPAAPECKVLTAAGNSCRVDVFTNLGYRAFSLSF
